Source: PubChem BioAssay AID504791 (Drosophila RNAi Screening Center, 2011)
Assay: 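Genes of the fly required for silencing by miRNA, siRNA or endo-siRNA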 (primary screen). Cell system: Drosophila S2-derived reporter cells. Reagent: long dsRNA against Drosophila genes, about 150-250 ng dsRNA per well (siRNA assay); about 80-120 ng (miRNA assay). Timing: about 5 days (siRNA assay); about 4 days (miRNA assay). Conditions: copper sulfate induction of reporters: 25 µM (siRNA assay); 200 mM stated (miRNA assay), 1-2 days before reading. Measurement: 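Per-well ratio of Renilla over firefly light, expressed relative to that plate's average ratio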. Units: stable assay Renilla, run 1 in luminescence; stable assay firefly, run 1 in luminescence. Rule for the call: 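First-pass picks had plate-scaled ratios over 1.5 for the siRNA assay, over 1.6 for the miRNA assay, or under 0.6; two distinct dsRNAs had to score alike on retest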.
The screen tested about 23,000 reagents; shown is an unselected part of those that have a named target and a result. In the full data, 199 (0.86%) were called active. 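Plate-scaled ratios behind the calls are not deposited; printed light signals are raw; many rows marked increased or decreased are still called inactive.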 Unmarked entries are inactive. Reagent sequences are not shown. Not given: the direction of the score.

Against par-6 (GeneID 32752) [DRSC20359], the entry reads stable assay Renilla, run 1 = 8190; stable assay firefly, run 1 = 4.88e5.
With knock-down of Mical (GeneID 41225) [DRSC14349], the record shows stable assay Renilla, run 1 = 6451; stable assay firefly, run 1 = 4.75e5.
Mical (GeneID 41225) [DRSC14351] showed stable assay Renilla, run 1 = 6452; stable assay firefly, run 1 = 5.01e5.
Depletion of Mical (GeneID 41225) [DRSC15365] resulted in: stable assay Renilla, run 1 = 5022; stable assay firefly, run 1 = 3.74e5.
With knock-down of Mical (GeneID 41225) [DRSC15366] the results were stable assay Renilla, run 1 = 6338; stable assay firefly, run 1 = 4.86e5.
For PIG-Q (GeneID 117366) [DRSC19138], the values are stable assay Renilla, run 1 = 5303; stable assay firefly, run 1 = 3.70e5.
Against LRP1 (GeneID 35799) [DRSC07238], the values are stable assay Renilla, run 1 = 6587; stable assay firefly, run 1 = 3.62e5.
For Tailor (GeneID 40847) [DRSC12526], the entry reads stable assay Renilla, run 1 = 7759; stable assay firefly, run 1 = 4.02e5.
Depletion of CG9593 (GeneID 41912) [DRSC16508] came out at: stable assay Renilla, run 1 = 6620; stable assay firefly, run 1 = 3.97e5.
After knock-down of CG7728 (GeneID 39904) [DRSC10907] the results were stable assay Renilla, run 1 = 7178; stable assay firefly, run 1 = 2.70e5.
Silencing of Vps52 (GeneID 33774) [DRSC03050] gave: stable assay Renilla, run 1 = 8138; stable assay firefly, run 1 = 4.16e5.
Against CG16956 (GeneID 34760) [DRSC02544], the values are stable assay Renilla, run 1 = 7000; stable assay firefly, run 1 = 3.66e5.
Against nau (GeneID 42799) [DRSC17011], the values are stable assay Renilla, run 1 = 7031; stable assay firefly, run 1 = 2.74e5.

Just “stable assay firefly, run 1” (4 entries from above):
Tailor (GeneID 40847) [DRSC12526]	4.02e5
CG9593 (GeneID 41912) [DRSC16508]	3.97e5
CG7728 (GeneID 39904) [DRSC10907]	2.70e5
Vps52 (GeneID 33774) [DRSC03050]	4.16e5

Continued:
Idgf1 (GeneID 34978) [DRSC03349] gave stable assay Renilla, run 1 = 54786; stable assay firefly, run 1 = 1.28e6.
Against Elp1 (GeneID 41399) [DRSC14250], the entry reads stable assay Renilla, run 1 = 8282; stable assay firefly, run 1 = 4.89e5.
With knock-down of Or65b (GeneID 318012) [DRSC08809], the screen gave stable assay Renilla, run 1 = 4343; stable assay firefly, run 1 = 4.33e5.
After knock-down of lsn (GeneID 42572) [DRSC16081] the results were stable assay Renilla, run 1 = 6758; stable assay firefly, run 1 = 3.80e5.
RpS7 (GeneID 43594) [DRSC15394] scored miRNA reporter change reporter ratio lowered past the hit cutoff (active); stable assay Renilla, run 1 = 6083; stable assay firefly, run 1 = 4.15e5.
RpS7 (GeneID 43594) [DRSC28468] scored miRNA reporter change reporter ratio lowered past the hit cutoff (active).
After knock-down of CG10077 (GeneID 38756) [DRSC09691], the screen gave stable assay Renilla, run 1 = 8828; stable assay firefly, run 1 = 5.72e5.
CG1394 (GeneID 32059) [DRSC19539] scored stable assay Renilla, run 1 = 4184; stable assay firefly, run 1 = 2.53e5.
For CG9581 (GeneID 33017) [DRSC20695], the values are stable assay Renilla, run 1 = 4271; stable assay firefly, run 1 = 3.91e5.
For CG9581 (GeneID 33017) [DRSC22247] the deposit lists stable assay Renilla, run 1 = 9670; stable assay firefly, run 1 = 7.13e5.
Knock-down of HP1e (GeneID 41108) [DRSC16379] came out at: stable assay Renilla, run 1 = 8290; stable assay firefly, run 1 = 5.15e5.
Lectin-galC1 (GeneID 35216) [DRSC03362] scored stable assay Renilla, run 1 = 7443; stable assay firefly, run 1 = 3.66e5.
With knock-down of CG9399 (GeneID 41157) [DRSC16488], the record shows stable assay Renilla, run 1 = 6882; stable assay firefly, run 1 = 4.06e5.
With knock-down of Spn28Da (GeneID 34082) [DRSC02162], the screen gave stable assay Renilla, run 1 = 6566; stable assay firefly, run 1 = 3.59e5.
With knock-down of CG14982 (GeneID 38464) [DRSC08440], the screen gave stable siRNA reporter change reporter ratio raised past the hit cutoff; stable assay Renilla, run 1 = 4235; stable assay firefly, run 1 = 1.63e5.
Depletion of CG14982 (GeneID 38464) [DRSC23022] resulted in: stable assay Renilla, run 1 = 3635; stable assay firefly, run 1 = 2.77e5.
